These are yes or no findings as the source states them, for the method shown. In cells and extracts the contact can be indirect. Some results given as binding are weak or reduced against the parent protein; the word gives no strength. For some assays here: Tags and fused reporters may be left off the sequences shown.
T1: Lst8 (Saccharomyces cerevisiae (endogenous in yeast vacuoles)) (UniProt P41318)
T1 sequence: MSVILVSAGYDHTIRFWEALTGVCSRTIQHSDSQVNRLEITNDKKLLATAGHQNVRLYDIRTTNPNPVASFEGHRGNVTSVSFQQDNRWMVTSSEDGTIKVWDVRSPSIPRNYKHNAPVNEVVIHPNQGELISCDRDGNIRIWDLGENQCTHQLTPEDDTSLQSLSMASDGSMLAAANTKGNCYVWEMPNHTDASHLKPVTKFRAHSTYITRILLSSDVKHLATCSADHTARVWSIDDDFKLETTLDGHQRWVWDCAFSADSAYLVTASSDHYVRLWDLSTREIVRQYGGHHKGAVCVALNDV

Sequences of proteins named here, by UniProt entry; tags and fusion partners are left off.
UniProt P38873: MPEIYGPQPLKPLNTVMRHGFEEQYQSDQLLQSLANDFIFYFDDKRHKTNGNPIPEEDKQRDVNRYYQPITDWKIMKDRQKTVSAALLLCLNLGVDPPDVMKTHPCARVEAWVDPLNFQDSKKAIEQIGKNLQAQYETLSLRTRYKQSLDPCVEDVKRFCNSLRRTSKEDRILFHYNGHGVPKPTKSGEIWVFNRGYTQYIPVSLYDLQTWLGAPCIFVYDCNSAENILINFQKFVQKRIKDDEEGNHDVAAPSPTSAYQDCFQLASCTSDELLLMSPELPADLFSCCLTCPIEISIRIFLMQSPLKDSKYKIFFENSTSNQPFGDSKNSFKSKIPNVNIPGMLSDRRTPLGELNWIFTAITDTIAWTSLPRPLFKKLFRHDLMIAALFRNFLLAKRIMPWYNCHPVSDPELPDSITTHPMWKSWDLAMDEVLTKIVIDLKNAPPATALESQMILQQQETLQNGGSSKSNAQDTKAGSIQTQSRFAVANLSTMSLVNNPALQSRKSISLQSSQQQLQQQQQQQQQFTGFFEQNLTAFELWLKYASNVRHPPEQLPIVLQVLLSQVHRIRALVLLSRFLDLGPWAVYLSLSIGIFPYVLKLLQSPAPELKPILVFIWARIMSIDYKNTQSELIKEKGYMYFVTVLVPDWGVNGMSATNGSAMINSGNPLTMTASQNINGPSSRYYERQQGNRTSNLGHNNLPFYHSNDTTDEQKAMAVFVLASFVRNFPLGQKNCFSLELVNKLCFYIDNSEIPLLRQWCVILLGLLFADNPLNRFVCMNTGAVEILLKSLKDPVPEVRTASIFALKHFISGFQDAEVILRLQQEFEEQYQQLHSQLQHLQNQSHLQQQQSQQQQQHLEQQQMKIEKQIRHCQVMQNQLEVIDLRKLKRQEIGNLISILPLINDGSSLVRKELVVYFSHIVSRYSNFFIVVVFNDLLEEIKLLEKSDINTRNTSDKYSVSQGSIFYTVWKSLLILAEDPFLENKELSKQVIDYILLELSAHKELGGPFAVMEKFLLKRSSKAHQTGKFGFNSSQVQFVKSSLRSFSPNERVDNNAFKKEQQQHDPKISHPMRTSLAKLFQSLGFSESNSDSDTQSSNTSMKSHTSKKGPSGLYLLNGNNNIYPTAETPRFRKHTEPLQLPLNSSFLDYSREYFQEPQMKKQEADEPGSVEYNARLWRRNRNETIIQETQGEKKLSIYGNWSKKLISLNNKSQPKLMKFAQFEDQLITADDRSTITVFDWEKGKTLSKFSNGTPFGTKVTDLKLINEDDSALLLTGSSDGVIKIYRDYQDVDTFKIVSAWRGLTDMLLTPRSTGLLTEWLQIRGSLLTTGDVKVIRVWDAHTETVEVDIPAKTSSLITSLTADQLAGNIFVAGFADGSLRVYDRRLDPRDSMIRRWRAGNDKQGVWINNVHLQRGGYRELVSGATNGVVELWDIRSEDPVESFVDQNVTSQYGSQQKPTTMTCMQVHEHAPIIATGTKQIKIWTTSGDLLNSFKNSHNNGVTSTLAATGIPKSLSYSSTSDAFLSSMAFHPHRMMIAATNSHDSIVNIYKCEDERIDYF
UniProt P35169: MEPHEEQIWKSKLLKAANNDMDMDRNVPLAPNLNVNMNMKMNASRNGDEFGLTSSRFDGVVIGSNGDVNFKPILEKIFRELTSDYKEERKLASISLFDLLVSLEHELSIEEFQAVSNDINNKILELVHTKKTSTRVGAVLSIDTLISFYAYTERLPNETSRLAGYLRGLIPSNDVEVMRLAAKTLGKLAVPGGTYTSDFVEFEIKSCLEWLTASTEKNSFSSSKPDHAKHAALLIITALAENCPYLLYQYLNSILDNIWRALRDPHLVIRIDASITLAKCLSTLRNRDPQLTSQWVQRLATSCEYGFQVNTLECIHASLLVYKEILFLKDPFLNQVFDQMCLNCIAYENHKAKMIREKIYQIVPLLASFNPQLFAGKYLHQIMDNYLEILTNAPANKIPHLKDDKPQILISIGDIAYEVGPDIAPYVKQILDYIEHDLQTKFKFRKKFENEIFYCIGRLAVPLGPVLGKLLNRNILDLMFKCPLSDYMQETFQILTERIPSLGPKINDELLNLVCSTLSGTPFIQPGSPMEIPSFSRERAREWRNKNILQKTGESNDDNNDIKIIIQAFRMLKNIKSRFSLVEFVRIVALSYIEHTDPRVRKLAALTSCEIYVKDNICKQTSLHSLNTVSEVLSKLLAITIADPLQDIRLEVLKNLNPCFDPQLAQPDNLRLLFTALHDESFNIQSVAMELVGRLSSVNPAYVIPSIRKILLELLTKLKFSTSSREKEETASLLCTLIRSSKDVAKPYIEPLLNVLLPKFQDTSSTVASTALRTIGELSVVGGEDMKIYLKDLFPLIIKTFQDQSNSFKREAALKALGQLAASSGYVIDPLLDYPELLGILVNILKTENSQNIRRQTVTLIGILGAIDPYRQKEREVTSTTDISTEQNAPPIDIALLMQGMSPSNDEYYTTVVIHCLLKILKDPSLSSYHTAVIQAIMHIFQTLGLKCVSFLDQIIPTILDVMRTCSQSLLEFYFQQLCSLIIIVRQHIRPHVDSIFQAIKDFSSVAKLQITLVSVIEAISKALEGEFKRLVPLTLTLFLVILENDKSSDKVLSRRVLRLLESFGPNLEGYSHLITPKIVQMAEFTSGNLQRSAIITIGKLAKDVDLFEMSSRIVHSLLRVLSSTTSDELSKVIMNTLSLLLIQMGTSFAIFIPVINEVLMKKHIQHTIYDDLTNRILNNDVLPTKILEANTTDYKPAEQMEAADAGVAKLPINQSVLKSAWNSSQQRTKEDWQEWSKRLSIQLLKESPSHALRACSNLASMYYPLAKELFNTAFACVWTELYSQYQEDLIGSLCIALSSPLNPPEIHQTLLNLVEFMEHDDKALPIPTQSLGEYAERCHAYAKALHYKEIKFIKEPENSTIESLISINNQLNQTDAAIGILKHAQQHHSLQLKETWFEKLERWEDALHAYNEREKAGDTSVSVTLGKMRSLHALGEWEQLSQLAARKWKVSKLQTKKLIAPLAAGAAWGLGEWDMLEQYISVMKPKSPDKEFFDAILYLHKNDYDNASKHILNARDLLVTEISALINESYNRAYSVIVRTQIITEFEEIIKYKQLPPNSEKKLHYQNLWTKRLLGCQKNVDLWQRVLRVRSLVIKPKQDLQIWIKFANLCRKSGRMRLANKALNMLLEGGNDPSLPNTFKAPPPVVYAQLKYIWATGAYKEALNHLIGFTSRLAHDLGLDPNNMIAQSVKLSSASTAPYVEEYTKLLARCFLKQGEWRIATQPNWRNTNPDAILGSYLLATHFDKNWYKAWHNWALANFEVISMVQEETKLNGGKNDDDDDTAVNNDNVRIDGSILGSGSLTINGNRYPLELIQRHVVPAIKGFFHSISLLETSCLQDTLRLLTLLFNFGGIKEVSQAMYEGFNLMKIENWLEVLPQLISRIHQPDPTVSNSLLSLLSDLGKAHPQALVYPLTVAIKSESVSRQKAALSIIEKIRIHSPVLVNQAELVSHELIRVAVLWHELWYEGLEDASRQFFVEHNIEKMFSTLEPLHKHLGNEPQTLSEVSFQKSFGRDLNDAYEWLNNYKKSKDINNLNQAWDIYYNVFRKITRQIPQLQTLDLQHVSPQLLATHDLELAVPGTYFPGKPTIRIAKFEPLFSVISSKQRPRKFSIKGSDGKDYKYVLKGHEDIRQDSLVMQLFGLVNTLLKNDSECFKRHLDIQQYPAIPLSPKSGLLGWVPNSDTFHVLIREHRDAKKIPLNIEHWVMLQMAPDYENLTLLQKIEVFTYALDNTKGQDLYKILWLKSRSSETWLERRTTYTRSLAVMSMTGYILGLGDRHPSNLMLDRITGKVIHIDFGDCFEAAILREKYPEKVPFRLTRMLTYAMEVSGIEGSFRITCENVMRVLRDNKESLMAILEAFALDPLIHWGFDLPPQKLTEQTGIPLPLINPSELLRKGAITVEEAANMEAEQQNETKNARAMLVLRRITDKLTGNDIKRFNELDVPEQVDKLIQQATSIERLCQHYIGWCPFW
UniProt Q04338: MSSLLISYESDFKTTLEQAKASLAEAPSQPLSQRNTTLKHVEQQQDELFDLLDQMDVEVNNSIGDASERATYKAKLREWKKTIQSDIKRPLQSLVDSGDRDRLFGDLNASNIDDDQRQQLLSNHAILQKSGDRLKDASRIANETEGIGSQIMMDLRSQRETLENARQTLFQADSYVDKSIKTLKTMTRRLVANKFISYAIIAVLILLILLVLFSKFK

T2: Vam3 (Saccharomyces cerevisiae (endogenous in yeast vacuoles)) (UniProt Q12241)
T2 sequence: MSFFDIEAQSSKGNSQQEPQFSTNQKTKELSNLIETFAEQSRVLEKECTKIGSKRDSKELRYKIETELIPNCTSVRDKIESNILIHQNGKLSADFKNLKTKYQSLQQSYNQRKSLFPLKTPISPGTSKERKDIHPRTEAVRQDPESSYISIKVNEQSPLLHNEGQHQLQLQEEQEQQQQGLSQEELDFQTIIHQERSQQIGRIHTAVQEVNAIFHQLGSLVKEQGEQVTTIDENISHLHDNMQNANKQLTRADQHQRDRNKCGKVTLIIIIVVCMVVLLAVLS

B1: Pib2 (protein, UniProt P53191 1-635)
chain: MTALHSVSKTPAIKEEEEDGDERDGRGVPLGPRNHDYRGRKGDEESGADTVTSPITFEKKKIAPRASTHSEQSILSSISLKSMVNQHRQQQLQQESSTGAGTGFVDRKQQIQSPAMVSILRKNSAEENVRSSHSSKLGEGQIDGRKASASKEIGKTLPFTDDQRSNPELDPTNSVVDVSRGKNTKSKTVFNELEDDADDDDEVRQKNLTTQALRKLSSFKMNASSNLRLSKENKAKESSSSSTSSVSSSSTSKVENIVDKLTTTNSSSMSQLRFGNTNVIIDSVNHAAKPPHQQMLRKPSLEFLPQPASSTNLNFNSNKHKSNVRQISNPKKPLYIPAVLRKVSETNITNDDLLNATLSSYYKKASNLEHGFNPSKSQSASVQNANNLRIISSQSSVQSNTSSILESYKNKISSYLFPNSIPNSDRINLIPTISNRNSARVNPPTKDHWIPDSKRNSCRYCHKPFTLWERKHHCRHCGDIFCQDHLRHWLYLDSQANFIMINELNNGGINGGGTLCKICDDCLVEYENLSTTNHNANTNEDNINVEEGEDDDNDNRKKLRNYYKNRQMNALFRPKKGGSSQEHATVDRDTTTPIQVKSNDEEADNENTGGEQEEGNDVLGSVIGSVPANWNWSSF
B2: Vam7 (protein, UniProt P32912 1-316)
chain: MAANSVGKMSEKLRIKVDDVKINPKYVLYGVSTPNKRLYKRYSEFWKLKTRLERDVGSTIPYDFPEKPGVLDRRWQRRYDDPEMIDERRIGLERFLNELYNDRFDSRWRDTKIAQDFLQLSKPNVSQEKSQQHLETADEVGWDEMIRDIKLDLDKESDGTPSVRGALRARTKLHKLRERLEQDVQKKSLPSTEVTRRAALLRSLLKECDDIGTANIAQDRGRLLGVATSDNSSTTEVQGRTNNDLQQGQMQMVRDQEQELVALHRIIQAQRGLALEMNEELQTQNELLTALEDDVDNTGRRLQIANKKARHFNNSA

Key:
Experiment in all cases: cross-linking
[1] = molecular target: Kog1 (Saccharomyces cerevisiae (endogenous in yeast vacuoles)) (UniProt P38873)
[2] = molecular target: T1, Lst8 (Saccharomyces cerevisiae (endogenous in yeast vacuoles))
[3] = molecular target: Tor1 (Saccharomyces cerevisiae (endogenous in yeast vacuoles)) (UniProt P35169)
[4] = molecular target: T2, Vam3 (Saccharomyces cerevisiae (endogenous in yeast vacuoles))
[5] = molecular target: Vti1 (Saccharomyces cerevisiae (endogenous in yeast vacuoles)) (UniProt Q04338)

binding [1] | binding [2] | binding [3] | binding [4] | binding [5] | Binder
binds | binds | binds |  |  | B1
 |  |  | binds | binds | B2

Reference: publication doi:10.1101/2023.08.21.554079
